According to PMC6858330:
No constants are given. Whether binding was seen depends on the method and setting. In cells and extracts the contact can be indirect. Here binding means that the protein was enriched with, or labelled near, the bait; the list need not be complete. Tags and fused reporters may be left off the sequences shown.

Target: T1, BirA*-tagged Arf1p (Arf1p-BirA(R118G)-S tag) (S. cerevisiae) (UniProt P11076)
T1 sequence: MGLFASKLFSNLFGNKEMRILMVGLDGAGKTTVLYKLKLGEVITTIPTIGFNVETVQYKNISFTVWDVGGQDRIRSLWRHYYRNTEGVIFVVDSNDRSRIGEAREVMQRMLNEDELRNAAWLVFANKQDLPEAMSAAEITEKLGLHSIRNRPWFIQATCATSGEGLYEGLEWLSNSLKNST
Assay: proximity labelling; BioID in living yeast: Arf1p-BirA*-S and GFP-Vps9p; 10 μM D-biotin for 3 h; lysis in 50 mM Tris-HCl pH 8.0, 150 mM NaCl, 4 M urea; biotinylated proteins pulled down with Streptavidin agarose; anti-GFP blot

B1: GFP-Vps9p (protein, UniProt P54787 1-451)
chain: MTDDEKREILKEFDPFSQLEQANGNPDKDVKFKKDDPNRAAAEETNRDISAQDKGDEEPFYDFQIFIKQLQTPGADPLVKYTKSFLRNFLAQRLLWTVSEEIKLISDFKTFIYDKFTLYEPFRSLDNSKMRNAKEGMEKLIMGKLYSRCFSPSLYEILQKPLDDEHMKDLTNDDTLLEKIRHYRFISPIMLDIPDTMPNARLNKFVHLASKELGKINRFKSPRDKMVCVLNASKVIFGLLKHTKLEQNGADSFIPVLIYCILKGQVRYLVSNVNYIERFRSPDFIRGEEEYYLSSLQAALNFIMNLTERSLTIEDHEDFEEAYQRNFKQLAEEKEEEEKKKQLEIPDELQPNGTLLKPLDEVTNIVISKFNELFSPIGEPTQEEALKSEQSNKEEDVSSLIKKIEENERKDTLNTLQNMFPDMDPSLIEDVCIAKKSRIGPCVDALLSLSE
- binding: binds
